{"sequences": {"note": "Chains of the proteins cited; added tags and fusions are not shown. Lines headed by an entry give the natural chain unless they say otherwise; changes in a name come on top.", "UniProt Q8NE71": "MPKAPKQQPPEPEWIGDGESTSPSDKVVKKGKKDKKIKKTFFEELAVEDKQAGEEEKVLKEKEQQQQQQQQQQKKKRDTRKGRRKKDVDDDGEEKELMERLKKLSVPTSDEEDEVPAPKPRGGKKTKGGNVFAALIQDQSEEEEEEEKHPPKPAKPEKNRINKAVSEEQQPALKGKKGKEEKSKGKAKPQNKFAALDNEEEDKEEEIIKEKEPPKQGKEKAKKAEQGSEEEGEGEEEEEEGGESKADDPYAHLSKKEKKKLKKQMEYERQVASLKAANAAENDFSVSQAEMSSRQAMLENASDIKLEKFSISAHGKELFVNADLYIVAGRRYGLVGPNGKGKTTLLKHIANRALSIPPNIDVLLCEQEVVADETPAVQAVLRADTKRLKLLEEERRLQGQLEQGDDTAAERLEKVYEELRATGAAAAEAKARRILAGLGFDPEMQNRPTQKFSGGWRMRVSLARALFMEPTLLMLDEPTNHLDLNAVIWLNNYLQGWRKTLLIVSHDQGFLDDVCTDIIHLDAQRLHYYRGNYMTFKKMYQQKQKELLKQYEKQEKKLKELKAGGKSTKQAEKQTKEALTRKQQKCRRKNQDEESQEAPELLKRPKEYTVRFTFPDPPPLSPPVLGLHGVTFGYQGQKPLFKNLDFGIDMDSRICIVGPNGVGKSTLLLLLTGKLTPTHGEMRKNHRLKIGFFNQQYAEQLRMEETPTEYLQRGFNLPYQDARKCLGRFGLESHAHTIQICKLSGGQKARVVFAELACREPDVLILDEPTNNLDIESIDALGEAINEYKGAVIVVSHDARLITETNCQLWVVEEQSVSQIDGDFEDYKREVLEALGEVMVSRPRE", "UniProt P33527": "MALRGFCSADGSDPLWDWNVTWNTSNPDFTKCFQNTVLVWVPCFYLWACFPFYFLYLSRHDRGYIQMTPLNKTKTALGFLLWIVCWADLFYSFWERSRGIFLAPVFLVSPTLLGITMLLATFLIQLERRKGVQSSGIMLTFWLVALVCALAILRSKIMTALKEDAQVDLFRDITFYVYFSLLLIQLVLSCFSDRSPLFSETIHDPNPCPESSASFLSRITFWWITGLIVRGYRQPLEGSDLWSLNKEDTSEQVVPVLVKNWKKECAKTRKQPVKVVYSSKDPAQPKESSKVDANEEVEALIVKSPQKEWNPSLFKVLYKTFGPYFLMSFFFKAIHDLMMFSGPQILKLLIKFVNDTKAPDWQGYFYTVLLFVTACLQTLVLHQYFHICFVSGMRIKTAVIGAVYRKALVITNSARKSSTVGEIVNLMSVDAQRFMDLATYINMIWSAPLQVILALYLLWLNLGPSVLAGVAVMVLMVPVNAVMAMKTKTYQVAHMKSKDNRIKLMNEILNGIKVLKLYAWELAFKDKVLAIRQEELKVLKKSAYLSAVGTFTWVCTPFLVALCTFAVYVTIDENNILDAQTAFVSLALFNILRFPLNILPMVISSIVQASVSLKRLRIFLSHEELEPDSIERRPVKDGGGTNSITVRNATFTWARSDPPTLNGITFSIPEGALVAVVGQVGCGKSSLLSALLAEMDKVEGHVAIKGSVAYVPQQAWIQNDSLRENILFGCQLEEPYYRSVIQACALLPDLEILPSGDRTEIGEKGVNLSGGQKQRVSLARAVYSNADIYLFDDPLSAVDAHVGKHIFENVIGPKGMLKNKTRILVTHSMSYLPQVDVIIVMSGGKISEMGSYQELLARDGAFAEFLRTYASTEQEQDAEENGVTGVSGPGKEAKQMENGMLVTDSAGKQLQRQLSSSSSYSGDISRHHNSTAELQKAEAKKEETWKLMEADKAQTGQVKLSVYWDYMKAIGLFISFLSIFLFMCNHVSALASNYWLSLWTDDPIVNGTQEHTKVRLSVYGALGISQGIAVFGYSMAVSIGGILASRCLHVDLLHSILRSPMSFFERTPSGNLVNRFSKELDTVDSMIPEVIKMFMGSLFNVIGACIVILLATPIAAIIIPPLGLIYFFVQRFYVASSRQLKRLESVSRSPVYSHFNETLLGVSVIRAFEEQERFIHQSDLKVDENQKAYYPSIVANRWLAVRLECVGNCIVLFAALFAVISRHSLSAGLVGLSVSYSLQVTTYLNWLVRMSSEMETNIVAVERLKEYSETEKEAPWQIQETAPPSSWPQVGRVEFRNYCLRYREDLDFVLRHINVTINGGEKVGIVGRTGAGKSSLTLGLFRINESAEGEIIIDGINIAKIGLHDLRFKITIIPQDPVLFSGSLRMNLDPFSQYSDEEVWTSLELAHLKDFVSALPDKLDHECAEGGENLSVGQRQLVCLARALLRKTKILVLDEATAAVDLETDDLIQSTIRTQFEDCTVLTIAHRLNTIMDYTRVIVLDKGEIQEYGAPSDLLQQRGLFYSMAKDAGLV", "UniProt P00519, whole entry": "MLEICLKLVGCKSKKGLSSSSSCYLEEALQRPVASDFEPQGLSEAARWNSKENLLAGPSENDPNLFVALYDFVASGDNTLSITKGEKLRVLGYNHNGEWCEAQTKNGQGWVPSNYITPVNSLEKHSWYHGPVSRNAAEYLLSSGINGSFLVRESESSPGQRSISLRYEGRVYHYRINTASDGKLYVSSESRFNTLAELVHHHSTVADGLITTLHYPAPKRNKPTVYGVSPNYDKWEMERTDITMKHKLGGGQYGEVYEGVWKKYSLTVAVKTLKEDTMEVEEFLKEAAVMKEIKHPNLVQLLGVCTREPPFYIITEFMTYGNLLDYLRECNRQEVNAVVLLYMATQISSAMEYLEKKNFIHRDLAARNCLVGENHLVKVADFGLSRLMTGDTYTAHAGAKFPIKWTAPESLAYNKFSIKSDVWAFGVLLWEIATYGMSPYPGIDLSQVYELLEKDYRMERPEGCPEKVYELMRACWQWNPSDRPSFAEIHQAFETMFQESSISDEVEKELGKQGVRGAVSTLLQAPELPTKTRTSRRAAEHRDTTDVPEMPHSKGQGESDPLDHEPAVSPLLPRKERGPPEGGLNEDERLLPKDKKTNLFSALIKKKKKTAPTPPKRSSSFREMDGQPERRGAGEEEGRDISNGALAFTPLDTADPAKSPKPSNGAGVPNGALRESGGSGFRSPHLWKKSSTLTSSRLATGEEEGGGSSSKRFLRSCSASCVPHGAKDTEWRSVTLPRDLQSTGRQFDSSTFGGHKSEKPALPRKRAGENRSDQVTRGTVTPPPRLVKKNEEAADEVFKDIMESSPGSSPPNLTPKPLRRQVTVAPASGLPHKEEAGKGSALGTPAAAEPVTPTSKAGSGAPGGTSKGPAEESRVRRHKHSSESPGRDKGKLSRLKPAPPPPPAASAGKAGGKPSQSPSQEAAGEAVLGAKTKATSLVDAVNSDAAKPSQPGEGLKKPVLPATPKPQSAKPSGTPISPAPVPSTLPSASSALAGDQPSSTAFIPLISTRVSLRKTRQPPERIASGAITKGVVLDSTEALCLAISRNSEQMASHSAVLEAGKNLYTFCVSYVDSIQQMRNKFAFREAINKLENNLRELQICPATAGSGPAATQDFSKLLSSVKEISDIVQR", "UniProt Q6PIU2": "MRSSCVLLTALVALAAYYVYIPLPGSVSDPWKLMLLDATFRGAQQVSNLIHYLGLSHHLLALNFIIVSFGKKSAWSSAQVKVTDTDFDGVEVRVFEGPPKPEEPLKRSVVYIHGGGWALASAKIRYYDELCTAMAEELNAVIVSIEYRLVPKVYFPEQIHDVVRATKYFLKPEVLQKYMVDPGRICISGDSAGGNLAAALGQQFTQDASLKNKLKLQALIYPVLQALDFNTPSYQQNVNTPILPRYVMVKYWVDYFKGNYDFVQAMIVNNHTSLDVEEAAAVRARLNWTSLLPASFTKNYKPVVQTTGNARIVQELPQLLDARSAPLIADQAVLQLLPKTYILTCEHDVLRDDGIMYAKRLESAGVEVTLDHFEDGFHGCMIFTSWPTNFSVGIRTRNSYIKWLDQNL", "UniProt Q7L211": "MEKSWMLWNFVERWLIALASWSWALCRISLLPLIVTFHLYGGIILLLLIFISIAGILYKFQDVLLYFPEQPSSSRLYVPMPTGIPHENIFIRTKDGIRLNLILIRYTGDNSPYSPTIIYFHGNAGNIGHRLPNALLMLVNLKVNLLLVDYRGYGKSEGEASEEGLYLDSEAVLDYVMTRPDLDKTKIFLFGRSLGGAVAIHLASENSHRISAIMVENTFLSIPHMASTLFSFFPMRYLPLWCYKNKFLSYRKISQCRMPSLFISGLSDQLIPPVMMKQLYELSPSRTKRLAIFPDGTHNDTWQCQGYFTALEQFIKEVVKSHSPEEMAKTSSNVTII", "UniProt Q9NRN7": "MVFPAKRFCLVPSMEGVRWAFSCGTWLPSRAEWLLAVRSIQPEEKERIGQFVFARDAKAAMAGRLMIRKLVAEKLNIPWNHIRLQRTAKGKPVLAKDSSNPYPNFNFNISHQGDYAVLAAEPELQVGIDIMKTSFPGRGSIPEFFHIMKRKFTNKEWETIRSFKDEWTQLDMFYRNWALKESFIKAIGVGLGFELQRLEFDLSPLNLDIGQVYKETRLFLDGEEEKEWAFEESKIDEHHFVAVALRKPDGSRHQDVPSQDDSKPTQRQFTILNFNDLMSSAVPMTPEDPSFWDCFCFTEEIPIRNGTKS", "UniProt Q9NRK6": "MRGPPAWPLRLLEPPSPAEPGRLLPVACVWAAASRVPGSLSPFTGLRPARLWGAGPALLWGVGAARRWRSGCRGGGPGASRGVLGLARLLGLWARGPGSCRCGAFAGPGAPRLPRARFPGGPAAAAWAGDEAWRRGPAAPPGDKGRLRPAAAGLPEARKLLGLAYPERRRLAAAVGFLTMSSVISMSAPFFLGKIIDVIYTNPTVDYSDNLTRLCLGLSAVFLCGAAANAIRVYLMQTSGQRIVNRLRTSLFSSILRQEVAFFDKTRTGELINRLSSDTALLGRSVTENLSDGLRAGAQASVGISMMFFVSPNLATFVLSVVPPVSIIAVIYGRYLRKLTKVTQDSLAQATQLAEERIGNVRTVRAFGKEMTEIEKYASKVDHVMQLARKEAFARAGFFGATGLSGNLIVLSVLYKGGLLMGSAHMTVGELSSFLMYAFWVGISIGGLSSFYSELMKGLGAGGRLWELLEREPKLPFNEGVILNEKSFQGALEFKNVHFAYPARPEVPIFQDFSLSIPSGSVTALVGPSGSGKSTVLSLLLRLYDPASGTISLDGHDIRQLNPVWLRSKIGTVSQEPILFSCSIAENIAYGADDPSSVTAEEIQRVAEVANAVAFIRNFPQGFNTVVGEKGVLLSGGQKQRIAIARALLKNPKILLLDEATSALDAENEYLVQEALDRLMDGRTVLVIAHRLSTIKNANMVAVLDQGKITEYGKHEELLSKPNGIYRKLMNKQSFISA", "UniProt Q4L235": "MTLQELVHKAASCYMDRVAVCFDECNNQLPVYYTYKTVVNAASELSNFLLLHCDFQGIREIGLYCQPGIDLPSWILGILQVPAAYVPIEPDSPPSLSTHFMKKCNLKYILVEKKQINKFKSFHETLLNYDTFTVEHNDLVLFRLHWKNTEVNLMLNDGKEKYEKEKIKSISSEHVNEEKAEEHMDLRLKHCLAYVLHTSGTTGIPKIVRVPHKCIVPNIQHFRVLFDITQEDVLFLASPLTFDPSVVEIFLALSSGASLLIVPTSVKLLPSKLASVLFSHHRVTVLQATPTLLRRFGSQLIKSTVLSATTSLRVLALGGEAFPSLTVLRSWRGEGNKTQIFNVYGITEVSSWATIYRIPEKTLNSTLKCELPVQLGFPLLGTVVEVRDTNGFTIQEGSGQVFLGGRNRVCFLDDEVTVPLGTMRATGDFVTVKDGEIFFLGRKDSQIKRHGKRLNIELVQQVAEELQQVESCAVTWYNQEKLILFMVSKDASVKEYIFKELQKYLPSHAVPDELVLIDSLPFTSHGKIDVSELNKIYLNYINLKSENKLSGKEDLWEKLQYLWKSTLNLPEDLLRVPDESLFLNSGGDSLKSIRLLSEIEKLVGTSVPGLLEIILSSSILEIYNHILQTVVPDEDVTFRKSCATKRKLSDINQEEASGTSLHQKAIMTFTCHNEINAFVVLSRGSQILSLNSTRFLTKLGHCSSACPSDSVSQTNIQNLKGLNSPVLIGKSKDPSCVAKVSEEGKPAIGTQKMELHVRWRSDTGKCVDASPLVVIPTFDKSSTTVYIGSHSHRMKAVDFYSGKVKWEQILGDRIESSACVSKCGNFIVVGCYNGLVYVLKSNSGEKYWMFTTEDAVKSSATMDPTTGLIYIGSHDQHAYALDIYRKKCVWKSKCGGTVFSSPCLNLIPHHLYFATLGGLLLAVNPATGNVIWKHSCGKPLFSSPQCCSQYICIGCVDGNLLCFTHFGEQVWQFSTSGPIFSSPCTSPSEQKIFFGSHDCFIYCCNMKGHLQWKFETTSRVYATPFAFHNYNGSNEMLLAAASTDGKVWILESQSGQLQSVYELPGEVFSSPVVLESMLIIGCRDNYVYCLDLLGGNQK"}, "source": "the supplement of paper PMC7666118", "note": "The other results are listed elsewhere or left out."}
{"compound": "COc1ccc(Cn2ccc3ccc(C(=O)NO)cc32)cc1", "experiment": "dose-dependent thermal stabilisation call (2D-TPP, DLPTP, 10% FDR) (binary (1 = stabilised)); higher = stabilised by the compound", "details": "system: HL-60 intact cells; concentration range 0.04-10 µM"}
{"target": "ABCF1 (UniProt Q8NE71)", "dose-dependent thermal stabilisation call": "inactive: 0"}
{"target": "ABCC1 (UniProt P33527)", "dose-dependent thermal stabilisation call": "inactive: 0"}
{"target": "ABI2 (UniProt Q9NYB9)", "dose-dependent thermal stabilisation call": "inactive: 0"}
{"target": "AATF (UniProt Q9NY61)", "dose-dependent thermal stabilisation call": "inactive: 0"}
{"target": "ACAP2 (UniProt Q15057)", "dose-dependent thermal stabilisation call": "inactive: 0"}
{"target": "ABL1 (UniProt P00519)", "dose-dependent thermal stabilisation call": "inactive: 0"}
{"target": "AADACL1 (UniProt Q6PIU2)", "dose-dependent thermal stabilisation call": "inactive: 0"}
{"target": "A2M (UniProt P01023)", "dose-dependent thermal stabilisation call": "inactive: 0"}
{"target": "ACACA (UniProt Q13085)", "dose-dependent thermal stabilisation call": "inactive: 0"}
{"target": "ABCC5 (UniProt O15440)", "dose-dependent thermal stabilisation call": "inactive: 0"}
{"target": "ABHD13 (UniProt Q7L211)", "dose-dependent thermal stabilisation call": "inactive: 0"}
{"target": "21 KDA PROTEIN.", "dose-dependent thermal stabilisation call": "inactive: 0"}
{"target": "AASDHPPT (UniProt Q9NRN7)", "dose-dependent thermal stabilisation call": "inactive: 0"}
{"target": "ABHD11 (UniProt Q8NFV4)", "dose-dependent thermal stabilisation call": "inactive: 0"}
{"target": "ACADSB (UniProt P45954)", "dose-dependent thermal stabilisation call": "inactive: 0"}
{"target": "ABCB10 (UniProt Q9NRK6)", "dose-dependent thermal stabilisation call": "inactive: 0"}
{"target": "AASDH (UniProt Q4L235)", "dose-dependent thermal stabilisation call": "inactive: 0"}
